# Reference: PubChem BioAssay AID504791 (Drosophila RNAi Screening Center, 2011)
# Purpose: 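Genes of the fly required for silencing by miRNA, siRNA or endo-siRNA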 (primary screen)
# System: Drosophila S2-derived reporter cells
# Reagent: long dsRNA against Drosophila genes, about 150-250 ng dsRNA per well (siRNA assay); about 80-120 ng (miRNA assay)
# Timing: about 5 days (siRNA assay); about 4 days (miRNA assay)
# Treatment: copper sulfate induction of reporters: 25 µM (siRNA assay); 200 mM stated (miRNA assay), 1-2 days before reading
# Measurement: 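Per-well ratio of Renilla over firefly light, expressed relative to that plate's average ratio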
# Call rule: 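First-pass picks had plate-scaled ratios over 1.5 for the siRNA assay, over 1.6 for the miRNA assay, or under 0.6; two distinct dsRNAs had to score alike on retest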
# In all, the deposit lists about 23,000 reagents; shown is an unselected part of those that have a named target and a result. Over the whole deposit, 199 (0.86%) are marked active. 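Plate-scaled ratios behind the calls are not deposited; printed light signals are raw; many rows marked increased or decreased are still called inactive.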 The numbers tell different reagents against one gene apart. Names joined by + are all predicted targets of the reagent. The record does not give: the direction of the score.
gene knocked down,reagent,stable siRNA reporter change,miRNA reporter change,"stable assay Renilla, run 1 (luminescence)","stable assay firefly, run 1 (luminescence)",Outcome
Vha14-2 (Vacuolar H[+] ATPase 14kD subunit 2),1,,,6334,4.19e5,inactive
Mcm5 (Minichromosome maintenance 5),1,,,6698,3.53e5,inactive
CG14990,1,,,6658,3.50e5,inactive
eEF1beta (eukaryotic translation elongation factor 1 beta),1,,,8050,2.51e5,inactive
CG18223,1,,,6803,4.23e5,inactive
"Arpc1 (Actin-related protein 2/3 complex, subunit 1)",1,,,7278,1.81e6,inactive
CG13814 (retired record),1,,,8332,4.11e5,inactive
Fbw5 (F-box and WD repeat domain containing 5),1,,,6126,3.59e5,inactive
CG32437,1,,,6560,3.92e5,inactive
CG32437,2,,,8860,4.99e5,inactive
CG5762,1,,,8170,3.48e5,inactive
CG7430,1,,,7539,3.08e5,inactive
CG43773,1,,,6619,4.17e5,inactive
CG43773,2,,,7246,4.03e5,inactive
CG14070,1,,,8226,4.61e5,inactive
stas (Stasimon),1,,,6372,5.05e5,inactive
Pi3K92E (Phosphatidylinositol 3-kinase 92E),1,,,9122,3.71e5,inactive
14-3-3zeta,1,,reporter ratio raised past the hit cutoff,8236,5.36e5,inactive
CG11127,1,,,17835,2.37e6,inactive
bocks (bocksbeutel),1,,,9605,5.51e5,inactive
CG14151,1,,,9415,7.77e5,inactive
CG12693,1,,,5480,3.10e5,inactive
rig (rigor mortis),1,,,7610,3.13e5,inactive
rig (rigor mortis),2,reporter ratio lowered past the hit cutoff,,3779,4.89e5,inactive
"AspRS-m (Aspartyl-tRNA synthetase, mitochondrial)",1,,,6258,3.77e5,inactive
CG3309,1,,,5507,4.60e5,inactive
frj (farjavit),1,,,14799,5.98e5,inactive
CG17032,1,,,6442,3.30e5,inactive
CG31269,1,,,7048,4.39e5,inactive
CG15136,1,,,7491,4.58e5,inactive
CG2861,1,,,6434,3.26e5,inactive
Cyp6u1 (Cytochrome P450 6u1),1,,,37728,1.33e6,inactive
"GatA (Glutamyl-tRNA amidotransferase, subunit A)",1,,,8090,4.38e5,inactive
CG32073,1,,,4890,3.79e5,inactive
CG32073,2,,,5583,4.03e5,inactive
asRNA:CR42743 + CG34162,1,,,4563,3.67e5,inactive
CG32074,1,,,9761,5.27e5,inactive
CG3106,1,,,8002,6.49e5,inactive
Sox100B,1,,,6620,3.31e5,inactive
Sox100B,2,,,6131,3.47e5,inactive
gce (germ cell-expressed bHLH-PAS),1,,,5808,5.34e5,inactive
gce (germ cell-expressed bHLH-PAS),2,reporter ratio lowered past the hit cutoff,,5123,8.16e5,inactive
spz6 (spatzle 6),1,,,42412,2.39e6,inactive
Femcoat,1,,,4566,2.34e5,inactive
CG31128,1,,,4787,4.01e5,inactive
CG14423,1,,,6380,3.72e5,inactive
Vps13 (Vacuolar protein sorting 13),1,,,6522,2.48e5,inactive
Rbp9 (RNA-binding protein 9),1,,,7007,5.75e5,inactive
Rbp9 (RNA-binding protein 9),2,,,15724,2.63e5,inactive
NPFR (Neuropeptide F receptor),1,,,7119,3.93e5,inactive
CG43386,1,,,4639,3.39e5,inactive
CG14440,1,,,4067,1.93e5,inactive
CG14440,2,,,4248,3.49e5,inactive
CG14440,3,,,3051,2.83e5,inactive
CG6244,1,,,7878,4.59e5,inactive
PAN3 (Poly(A) specific ribonuclease subunit PAN3),1,,,7410,4.51e5,inactive
Cat (Catalase),1,,,6367,4.15e5,inactive
Vdup1 (Vitamin D[[3]] up-regulated protein 1),1,,,4807,2.99e5,inactive
ImpE1 (Ecdysone-inducible gene E1),1,,,6556,4.06e5,inactive
ImpE1 (Ecdysone-inducible gene E1),2,,,6327,4.99e5,inactive
cbc (crowded by cid),1,,,9014,5.58e5,inactive
Gr36c (Gustatory receptor 36c),1,,,7877,4.23e5,inactive
obst-B (obstructor-B),1,,,46484,9.01e5,inactive
CG15563,1,,,6590,4.40e5,inactive
CG6503,1,,,5986,3.19e5,inactive
CG6171,1,,,7860,5.14e5,inactive
CG8517,1,,,7131,4.08e5,inactive
T3dh + pgc,1,,,19955,1.36e6,inactive
CG1943,1,,,7754,4.00e5,inactive
CG42579,1,,,4395,4.09e5,inactive
Ranbp21,1,,,9457,5.51e5,inactive
fra (frazzled),1,,,4970,2.53e5,inactive
Prosalpha2 (Proteasome alpha2 subunit),1,,,5655,2.49e5,inactive
CG9003,1,,,5626,3.03e5,inactive
"Polr2K (RNA polymerase II, I and III subunit K)",1,,,4172,3.40e5,inactive
RpL35A (Ribosomal protein L35A),1,,,7050,3.59e5,inactive
CG32192,1,,,8570,4.03e5,inactive
CG1146,1,,,9422,3.15e5,inactive
Lcp1Psi (Larval cuticle protein 1 pseudogene),1,,,5411,4.33e5,inactive
CG6836,1,,,10156,4.31e5,inactive
toc (toucan),1,,,4607,3.93e5,inactive
toc (toucan),2,,,5866,3.69e5,inactive
toc (toucan),3,,,27831,1.16e5,inactive

7 entries from above, ordered by “stable assay Renilla, run 1 (luminescence)”, descending:
gene knocked down,reagent,stable siRNA reporter change,miRNA reporter change,"stable assay Renilla, run 1 (luminescence)","stable assay firefly, run 1 (luminescence)",Outcome
CG32437,2,,,8860,4.99e5,inactive
CG14070,1,,,8226,4.61e5,inactive
CG5762,1,,,8170,3.48e5,inactive
CG7430,1,,,7539,3.08e5,inactive
CG43773,2,,,7246,4.03e5,inactive
CG43773,1,,,6619,4.17e5,inactive
stas (Stasimon),1,,,6372,5.05e5,inactive
